Source: PubChem BioAssay AID743456 (Peter MacCallum Cancer Centre, 2014)

Aim: 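miRNA mimics altering how resistant colon cancer cells respond to vorinostat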 (primary screen)
Cells: human HCT116-VR colon cancer cells, a vorinostat-resistant HCT116 line
Reagent: miRNA mimic
Time to read-out: about 3 days from transfection to readout; drug present for the last 24 h
Challenge: vorinostat at 2.5 µM final for 24 h
Read-out: 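Per-well live-cell protease fluorescence and caspase luminescence under 2.5 µM vorinostat for 24 h, scored as robust z-scores and against mock transfection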
Direction: viability robust z-score and viability vs mock transfection: higher = more viable cells; caspase robust z-score: higher = more caspase activity, more apoptosis
Hit rule: 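a mimic counts as active if it lands in a lowered-viability class or a caspase-activation class; wells with too few cells without drug are left out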
This is an unselected part of 878 reagents. 27 of all reagents (3.1%) were called active. 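27 mimics are marked active, unlike an earlier stated count of 24; the viability threshold is described inconsistently.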 The record does not give: the amount of reagent.

miRNA	viability robust z-score	caspase robust z-score	viability hit class	caspase hit class	viability vs mock transfection	Outcome
hsa-miR-886-5p	0.68	-0.62	no change	no change	0.88	inactive
hsa-miR-30d	1.19	-0.51	no change	no change	0.96	inactive
hsa-miR-526b*	1.13	0.15	no change	no change	0.94	inactive
hsa-miR-1290	1.1	-0.38	no change	no change	0.98	inactive
hsa-miR-648	-1.4	0.64	no change	no change	0.55	inactive
hsa-miR-369-3p	0.72	-0.79	no change	no change	0.91	inactive
hsa-miR-708	-2.85	2.1	no change	no change	0.32	inactive
hsa-miR-409-5p	0.33	4.42	no change	no change	0.84	inactive
hsa-miR-1249	-0.55	-0.52	no change	no change	0.72	inactive
hsa-miR-302d*	0.51	0.32	no change	no change	0.88	inactive
hsa-miR-301b	0.56	0.16	no change	no change	0.88	inactive
hsa-miR-491-5p	-3.71	1.12	reduced viability	no change	0.08	active
hsa-miR-330-3p	-0.04	-0.42	no change	no change	0.79	inactive
hsa-miR-941	0.34	-0.62	no change	no change	0.84	inactive
hsa-miR-151-3p	0.1	-0.24	no change	no change	0.76	inactive
hsa-miR-1270	-2.17	2.34	no change	no change	0.36	inactive
hsa-let-7g	0.32	-0.3	no change	no change	0.84	inactive
hsa-miR-191	0.93	-0.01	no change	no change	0.92	inactive
hsa-miR-603	-0.43	-0.24	no change	no change	0.73	inactive
hsa-miR-487a	0.45	-0.88	no change	no change	0.86	inactive

3 entries already listed, ordered by “caspase robust z-score”, low to high:
miRNA	viability robust z-score	caspase robust z-score	viability hit class	caspase hit class	viability vs mock transfection	Outcome
hsa-let-7g	0.32	-0.3	no change	no change	0.84	inactive
hsa-miR-603	-0.43	-0.24	no change	no change	0.73	inactive
hsa-miR-191	0.93	-0.01	no change	no change	0.92	inactive
